Results from PMC8668916.
No constants are given. Whether binding was seen depends on the method and setting. Binding seen in cells or lysates may run through a third protein. A yes stands for co-enrichment or nearness to the bait. Other partners may have been found.

Amino acid sequences for entries named in this document (tags omitted).
UniProt O94759: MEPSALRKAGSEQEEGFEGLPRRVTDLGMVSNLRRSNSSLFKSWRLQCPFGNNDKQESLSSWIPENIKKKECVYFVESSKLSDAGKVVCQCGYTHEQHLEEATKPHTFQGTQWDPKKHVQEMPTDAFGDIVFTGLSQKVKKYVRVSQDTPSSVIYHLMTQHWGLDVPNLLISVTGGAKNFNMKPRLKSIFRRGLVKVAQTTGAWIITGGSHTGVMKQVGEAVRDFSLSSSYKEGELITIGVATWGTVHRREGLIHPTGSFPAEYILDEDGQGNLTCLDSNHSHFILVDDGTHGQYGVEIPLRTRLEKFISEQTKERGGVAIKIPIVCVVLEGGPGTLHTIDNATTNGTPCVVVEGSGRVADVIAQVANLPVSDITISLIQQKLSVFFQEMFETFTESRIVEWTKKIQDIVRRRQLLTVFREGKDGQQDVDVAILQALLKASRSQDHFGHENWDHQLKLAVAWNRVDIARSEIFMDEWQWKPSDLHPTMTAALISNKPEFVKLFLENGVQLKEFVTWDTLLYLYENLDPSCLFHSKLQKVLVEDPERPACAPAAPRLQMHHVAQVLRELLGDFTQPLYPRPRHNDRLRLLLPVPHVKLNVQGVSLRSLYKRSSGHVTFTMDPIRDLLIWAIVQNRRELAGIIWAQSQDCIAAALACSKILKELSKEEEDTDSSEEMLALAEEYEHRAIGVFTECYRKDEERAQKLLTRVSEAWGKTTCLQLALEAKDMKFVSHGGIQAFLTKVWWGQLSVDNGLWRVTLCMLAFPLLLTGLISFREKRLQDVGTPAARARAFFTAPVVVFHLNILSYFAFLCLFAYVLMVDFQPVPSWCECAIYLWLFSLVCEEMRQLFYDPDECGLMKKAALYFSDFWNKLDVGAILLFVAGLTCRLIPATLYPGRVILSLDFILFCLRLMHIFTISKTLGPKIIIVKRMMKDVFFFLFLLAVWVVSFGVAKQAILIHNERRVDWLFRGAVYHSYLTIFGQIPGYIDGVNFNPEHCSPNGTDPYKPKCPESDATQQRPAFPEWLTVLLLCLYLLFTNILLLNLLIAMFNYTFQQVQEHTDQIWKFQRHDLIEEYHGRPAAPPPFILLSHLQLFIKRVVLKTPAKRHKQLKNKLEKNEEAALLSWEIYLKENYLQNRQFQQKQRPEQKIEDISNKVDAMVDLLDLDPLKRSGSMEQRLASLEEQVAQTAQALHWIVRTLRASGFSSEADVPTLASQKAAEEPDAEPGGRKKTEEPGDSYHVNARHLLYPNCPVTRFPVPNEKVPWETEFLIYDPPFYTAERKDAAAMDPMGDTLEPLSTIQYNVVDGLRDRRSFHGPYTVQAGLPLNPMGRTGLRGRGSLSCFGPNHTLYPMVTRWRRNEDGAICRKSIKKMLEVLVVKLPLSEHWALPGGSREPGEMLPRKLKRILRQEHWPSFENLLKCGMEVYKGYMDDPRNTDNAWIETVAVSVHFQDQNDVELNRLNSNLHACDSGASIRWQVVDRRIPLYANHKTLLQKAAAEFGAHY
UniProt P19474: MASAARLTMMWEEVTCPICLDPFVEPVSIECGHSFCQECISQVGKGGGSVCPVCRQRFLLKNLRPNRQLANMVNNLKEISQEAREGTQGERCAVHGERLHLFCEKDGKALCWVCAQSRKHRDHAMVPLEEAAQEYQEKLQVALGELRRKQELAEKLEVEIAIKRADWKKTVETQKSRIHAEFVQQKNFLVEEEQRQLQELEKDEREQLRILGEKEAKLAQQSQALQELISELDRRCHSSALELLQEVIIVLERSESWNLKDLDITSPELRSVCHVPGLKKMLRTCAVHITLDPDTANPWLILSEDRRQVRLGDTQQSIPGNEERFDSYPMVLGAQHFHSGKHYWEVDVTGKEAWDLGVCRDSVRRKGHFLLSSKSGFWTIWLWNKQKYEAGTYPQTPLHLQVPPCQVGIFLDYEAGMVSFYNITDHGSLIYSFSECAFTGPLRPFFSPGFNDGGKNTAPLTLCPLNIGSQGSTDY

Target: TRPM2 (Transient receptor potential cation channel subfamily M member 2) (human (endogenous in THP-1)) (UniProt O94759)
Assay: affinity purification with mass spectrometry; pull-down of TRPM2 from shNC and shAS (lncTRPM2-AS-silenced) THP-1 cells; TRPM2-interacting proteins identified by mass spectrometry

With “E3 ubiquitin ligase TRIM21 (from UniProt P19474 1-475) (enzyme)” as the substance, how does the binding read?
The binding was “binds”.
